Laboratory results published in PubChem BioAssay AID2685 (National Center for Advancing Translational Sciences (NCATS), 2010).
The list shows a part of the results. The main result of the screen is listed elsewhere. These columns were measured beside it and carry no call. Compounds called inactive in the main read-out are mostly missing here. Words in brackets tell the shape of the fitted curve; partial curves, single points and poor fits give uncertain potencies.

Assay: qHTS Assay for Lipid Storage Modulators in Drosophila S3 Cells;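 on cell number change: cells counted by Cell Tracker Red CMTPX staining in the red channel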
Settings: BODIPY lipid droplet fluorescence, 18-24 h; for cell number change: measured here: cell count max response, cells fed with added oleic acid
How it was run: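 Drosophila S3 cells loaded with oleic acid (400 uM, as added) and compounds at several concentrations; lipid droplets imaged by 488-nm laser-scanning cytometry, 500–530 nm intensity and object ratio to cell channel. Percent activity normalized to 20 uM Triacsin C.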

[1] = measured here: lipid fluorescence (Fed channel) AC50, cells fed with added oleic acid
[2] = measured here: cell number channel AC50, cells fed with added oleic acid

| SMILES | cell number change | AC50 [1] | AC50 [2] |
| --- | --- | --- | --- |
| COc1c(O)cnn(-c2ccccc2)c1=O | -27.1% | 0.82 µM [falling, full curve, poor fit] |  |
| CN(C)c1ccc(NC(=O)c2cccc([N+](=O)[O-])c2)c2ccccc12 | 12.4% | 29.1 µM [falling, single point] |  |
| CC(C)(C)OC(=O)NCCOC(=O)c1[nH]cnc1C(=O)NCc1ccccc1 | 3.69% | 0.0164 µM [falling, full curve, poor fit] |  |
| CCN1CCN(C(=O)c2ccc(Cl)c(S(=O)(=O)N3CCOCC3)c2)CC1 | -12.5% | 1.03 µM [falling, full curve, poor fit] | 0.82 µM [falling, full curve, poor fit] |
| Cc1cc(C(=O)NCc2cccs2)no1 | -22.6% | 0.731 µM [falling, full curve] | 0.651 µM [falling, full curve, poor fit] |
| Oc1ccc(-c2n[nH]c(=S)n2-c2ccc3c(c2)OCCO3)cc1 | -0.176% | 4.61 µM [rising, full curve, poor fit] |  |
| COc1ccc(CCC(=O)NNC(=O)c2cc(Cl)ccc2OC)cc1 | 9.58% | 2.31 µM [rising, partial curve] |  |
| CCOC(=O)c1c(NC(=O)CCN2CCOCC2)sc2c1CC(C)(C)OC2 | -21.7% |  |  |
| O=c1c(Cl)c(N2CCN(S(=O)(=O)c3ccc(F)cc3)CC2)cnn1-c1cccc(Cl)c1 |  | 29.1 µM [falling, single point] |  |
| CN(CCO)c1ccc(C(C(=O)c2ccccc2)c2ccc(N(C)CCO)cc2)cc1 | -38.7% |  | 32.6 µM [falling, single point] |
| CC(C)(C)NS(=O)(=O)c1ccc(OCC(=O)Nc2ccc3c(c2)OCCO3)cc1 | -11.5% | 0.517 µM [falling, full curve, poor fit] |  |
| Cc1cc(Nc2ccc(C)c(F)c2)n2ncnc2n1 | -5.35% | 29.1 µM [rising, single point] |  |
| COc1ccc(OCC(=O)Nc2nc3ccccc3[nH]2)cc1 |  | 3.66 µM [rising, partial curve] | 2.06 µM [rising, partial curve] |
| O=C(COC(=O)c1ccc(F)c(S(=O)(=O)N2CCOCC2)c1)NC1CC1 | -1.1% | 0.411 µM [rising, full curve, poor fit] |  |
| O=C(c1ccccc1)N1CCC(c2nc3c(nnn3Cc3ccco3)c(=O)[nH]2)CC1 | 7.73% | 0.82 µM [rising, full curve, poor fit] |  |
| Cc1sc(NC(=O)CCCC(=O)O)c(C#N)c1C | -0.287% | 32.6 µM [falling, partial curve] |  |
| CC(C)(C)C(=O)Nc1nc2c(s1)CN(Cc1ccccc1)CC2 | -16.6% |  |  |
| O=S(=O)(Nc1cccc(Oc2ccc(Cl)cc2)n1)c1ccc(F)cc1 | -33.2% | 32.6 µM [falling, single point] | 32.6 µM [falling, single point] |
| CC(C)(C)NCC(O)COc1cccc2c1CC(O)C(O)C2 (stereo not given) | 0.808% | 0.517 µM [falling, single point] | 0.82 µM [falling, partial curve] |

| SMILES | cell number change | AC50 [1] | AC50 [2] |
| --- | --- | --- | --- |
| CN(Cc1ccnc2ccccc12)C(=O)C1CCC(=O)N(Cc2ccccc2F)C1 (stereo not given) | 12.9% | 14.6 µM [rising, partial curve, poor fit] |  |
| Cc1ccc(OCCOC(=O)CN2C(=O)NC3(CCCC3)C2=O)cc1 | -48.2% | 0.00411 µM [falling, full curve, poor fit] | 14.6 µM [falling, partial curve] |
| CC(OC(=O)CCc1nc2ccccc2[nH]c1=O)c1ccccc1 (stereo not given) | 16.1% | 3.66 µM [rising, full curve] |  |
| CCC(C(=O)N1CCOCC1)n1c2ccccc2c2nc(=O)cc(C)n21 (stereo not given) | 14.2% |  |  |
| O=C(OCCN1CCCCC1)c1c[nH]c2ccccc12 | -17.1% |  |  |
| COc1ccc(/C=C/C(=O)Nc2ccc(-c3nnc4n3CCCCC4)cc2)c(OC)c1 | -2.2% | 29.1 µM [falling, single point] |  |
| Cc1ccc2c(c1)C1CN(C)CCC1N2CC(=O)N(C)c1ccccc1 (stereo not given) | 5.78% |  | 3.66 µM [rising, single point] |
| N#CCC(=O)N/N=C\c1ccccc1OC/C=C/c1ccccc1 | 5.66% |  |  |
| CCc1ccc(S(=O)(=O)N(C(=O)c2ccncc2)c2ccc(OC(=O)c3ccncc3)cc2)cc1 |  | 9.2 µM [falling, partial curve] |  |
| COc1ccc(NC(=S)N(CCC(C)C)C2CCN(C(C)C)CC2)cc1 | -29.8% |  |  |
| Cc1ccc(NS(=O)(=O)c2cccc(C(=O)NCC(c3cccs3)N(C)C)c2)cc1 (stereo not given) |  | 0.651 µM [rising, single point] | 0.58 µM [rising, single point] |
| CCCCc1c(O)nc(SCC(=O)N2CCCCCC2)[nH]c1=O | 0.901% | 6.51 µM [rising, single point] |  |
| Cc1nn(-c2ccccc2)c(Cl)c1/C=N/Nc1nc2ccccc2n1C |  | 4.11 µM [rising, partial curve] | 3.26 µM [rising, single point] |
| CCCCn1c(N)c(N(CCOC)C(=O)c2ccc(F)c(S(=O)(=O)N3CCOCC3)c2)c(=O)[nH]c1=O | 3.11% | 29.1 µM [falling, single point] |  |
| NC(=O)C1CCN(C(=O)c2cccc3ccccc23)CC1 | 10.6% | 0.00461 µM [rising, full curve, poor fit] |  |
| O=C(CCn1c(=O)oc2ccccc21)Nc1cccc(Br)c1 | 9.27% |  |  |
| CNc1oc(-c2cccc3ccccc23)nc1C#N | -20.7% | 16.4 µM [rising, single point] |  |
| CCn1cc(C(=O)NCCOC)c(=O)c2ccc(C)nc21 | -9.71% |  |  |
| Fc1ccc(OCCCn2ccnc2)cc1 | 12.6% | 0.184 µM [rising, full curve, poor fit] |  |

| SMILES | cell number change | AC50 [1] | AC50 [2] |
| --- | --- | --- | --- |
| Cc1cc(C)c2c(CC(=O)N(CCC#N)Cc3cccnc3)coc2c1 |  | 0.146 µM [rising, full curve, poor fit] | 0.116 µM [rising, partial curve] |
| COC(=O)Nc1ccc(S(=O)(=O)N2CCC(C(=O)N3CCCC(C)C3)CC2)cc1 (stereo not given) | -18.4% | 6.51 µM [falling, single point] | 6.51 µM [falling, single point] |
| O=C(Cn1nnc(-c2cc(C(F)(F)F)cc(C(F)(F)F)c2)n1)NNC(=S)Nc1ccc(Cl)cc1 | -42.5% | 18.4 µM [falling, single point] | 13 µM [falling, partial curve] |
| COc1ccc(C(=O)CC(=O)C(=O)Nc2cc([N+](=O)[O-])ccc2OC)cc1 | 31.9% | 29.1 µM [rising, single point] | 18.4 µM [rising, partial curve, poor fit] |
| COc1ccc2nc3oc(C(=O)N4CCN(c5cccc(C(F)(F)F)c5)CC4)cc3cc2c1 | 23% | 29.1 µM [rising, single point] |  |
| O=C(C(=O)N1CCCc2ccccc21)N1CCCc2ccccc21 | -16.7% | 3.26 µM [rising, single point] |  |
| CCCC1C2C(=O)N(c3ccc(OC)cc3)C(=O)C2ON1c1ccccc1 (stereo not given) | -13.7% | 29.1 µM [falling, single point] |  |
| Cc1occc1-c1nnc(SCC(=O)NCCc2ccccc2)n1C(C)c1ccccc1 (stereo not given) | -26.4% | 2.91 µM [rising, full curve] |  |
| O=C(OCC(=O)N1CCCc2ccccc21)c1ccc(S(=O)(=O)C(F)F)cc1 | 12.5% |  |  |
| CC(C)Oc1ccc(C(=O)Nc2ccc(S(=O)(=O)N3CCN(C)CC3)cc2)cc1 | -22.5% | 29.1 µM [falling, single point] |  |
| Cc1ccc(CNCC(O)(c2ccc(F)cc2)c2ccc(F)cc2)cc1 | -67.4% | 29.1 µM [falling, single point] | 23.1 µM [falling, single point] |
| CCNC(=O)N1CCNC(=O)C1CC(=O)Nc1ccc(C(=O)OCC)cc1 (stereo not given) | -27% | 0.82 µM [falling, full curve] | 0.92 µM [falling, full curve, poor fit] |
| CCOc1ccccc1N1CCN(C(=S)NCc2ccc(Cl)cc2)CC1 | -32.5% | 20.6 µM [falling, partial curve] | 0.651 µM [falling, full curve] |
| CC(Oc1ccccc1)c1ccn[nH]1 (stereo not given) | 39.5% | 11.6 µM [rising, partial curve] | 16.4 µM [rising, partial curve, poor fit] |
| Cc1ccccc1N1CCN(C2CCCN(C(=O)c3cn4cccc(C)c4n3)C2)CC1 (stereo not given) | -13.7% |  |  |
| CCc1ccc(NC(=O)C2CCN(S(=O)(=O)c3ccc4[nH]c(=O)ccc4c3)CC2)cc1 | 71.8% |  | 29.1 µM [rising, single point] |
| Cc1ccc(C)c(N2N=C(C(=O)Nc3cccnc3)CCC2=O)c1 | -0.627% | 0.58 µM [rising, full curve, poor fit] | 0.00461 µM [falling, full curve, poor fit] |
| COCCn1c(SCC(=O)NC2CCCCC2C)nnc1-c1ccncc1 (stereo not given) | -15.2% | 6.51 µM [rising, single point] |  |
| CC1Sc2ccc(C(=O)Nc3cc(S(C)(=O)=O)ccc3Cl)cc2NC1=O (stereo not given) | 2.27% | 29.1 µM [rising, single point] |  |

Among those listed so far, 2 contain a CF3 group:

| SMILES | cell number change | AC50 [1] | AC50 [2] |
| --- | --- | --- | --- |
| O=C(Cn1nnc(-c2cc(C(F)(F)F)cc(C(F)(F)F)c2)n1)NNC(=S)Nc1ccc(Cl)cc1 | -42.5% | 18.4 µM [falling, single point] | 13 µM [falling, partial curve] |
| COc1ccc2nc3oc(C(=O)N4CCN(c5cccc(C(F)(F)F)c5)CC4)cc3cc2c1 | 23% | 29.1 µM [rising, single point] |  |
